Experimental data taken from publication PMC10648541, “Design, Synthesis, and Antiproliferative Activity of Selective Histone Deacetylases 6 Inhibitors Containing a Tetrahydropyridopyrimidine Scaffold” (Molecules, 2023).

What was measured:
HCT116 = experiment: Antiproliferative assay (Alamar blue, 72 h), HCT116; assay type: cell-based; details: HCT116 cells, three independent experiments, SD < 10%, read-out: Antiproliferative effect IC50, HCT116
Description: (§1) The cells were cultured in IMDM (Gibco) medium with 20% FBS (Lonsera), 100 U/mL penicillin, and 100 µg/mL streptomycin (Solarbio). All cells were maintained at 37 °C in a humidified atmosphere of 5% CO2 in air. Briefly, 100 µL cell suspension or completed medium was plated into a 96-well plate. Compounds were added and incubated for 72 h. Then, 22 µL Alamar blue solution (1 mM) was pipetted into each well of a 96-well plate, and the plate was incubated for an additional 5~6 h. The absorbance (OD) was read at 530/590 nm. Data were normalized to vehicle groups (DMSO) and represented as the means of three independent measurements with standard errors of <20%. The IC50 values were calculated using Prism 5.0.

HL60 = experiment: Antiproliferative assay (Alamar blue, 72 h), HL60; assay type: cell-based; details: HL60 cells, three independent experiments, SD < 10%, read-out: Antiproliferative effect IC50, HL60
Description: as §1

O=C(CCCCCCC(=O)Nc1ccccc1)NO [SAHA, reference compound]
IC50 (HCT116): 4.5 µM | IC50 (HL60): 0.87 µM
